We go through three molecules from paper PMC11787384.

The chains behind the UniProt entries cited, without tags or fusion partners.
UniProt P40763: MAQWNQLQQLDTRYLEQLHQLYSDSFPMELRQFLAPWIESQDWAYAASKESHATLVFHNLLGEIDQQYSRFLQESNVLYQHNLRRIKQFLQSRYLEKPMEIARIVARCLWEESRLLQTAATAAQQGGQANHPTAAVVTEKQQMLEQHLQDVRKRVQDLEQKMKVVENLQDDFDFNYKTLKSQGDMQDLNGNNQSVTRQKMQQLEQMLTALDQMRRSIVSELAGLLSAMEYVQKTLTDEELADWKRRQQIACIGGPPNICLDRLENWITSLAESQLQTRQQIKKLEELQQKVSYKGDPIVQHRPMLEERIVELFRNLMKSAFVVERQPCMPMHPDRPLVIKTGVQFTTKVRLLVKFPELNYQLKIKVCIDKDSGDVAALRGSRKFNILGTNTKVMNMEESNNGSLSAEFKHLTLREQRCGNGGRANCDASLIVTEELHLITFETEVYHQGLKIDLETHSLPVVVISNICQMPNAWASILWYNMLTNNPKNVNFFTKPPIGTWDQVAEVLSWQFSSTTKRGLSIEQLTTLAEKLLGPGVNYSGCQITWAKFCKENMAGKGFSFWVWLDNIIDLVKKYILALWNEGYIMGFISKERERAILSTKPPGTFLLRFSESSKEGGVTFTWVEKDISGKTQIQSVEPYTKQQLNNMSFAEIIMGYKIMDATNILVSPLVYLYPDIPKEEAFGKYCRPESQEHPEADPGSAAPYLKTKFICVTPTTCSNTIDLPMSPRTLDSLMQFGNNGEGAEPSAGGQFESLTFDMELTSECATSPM
UniProt P42227: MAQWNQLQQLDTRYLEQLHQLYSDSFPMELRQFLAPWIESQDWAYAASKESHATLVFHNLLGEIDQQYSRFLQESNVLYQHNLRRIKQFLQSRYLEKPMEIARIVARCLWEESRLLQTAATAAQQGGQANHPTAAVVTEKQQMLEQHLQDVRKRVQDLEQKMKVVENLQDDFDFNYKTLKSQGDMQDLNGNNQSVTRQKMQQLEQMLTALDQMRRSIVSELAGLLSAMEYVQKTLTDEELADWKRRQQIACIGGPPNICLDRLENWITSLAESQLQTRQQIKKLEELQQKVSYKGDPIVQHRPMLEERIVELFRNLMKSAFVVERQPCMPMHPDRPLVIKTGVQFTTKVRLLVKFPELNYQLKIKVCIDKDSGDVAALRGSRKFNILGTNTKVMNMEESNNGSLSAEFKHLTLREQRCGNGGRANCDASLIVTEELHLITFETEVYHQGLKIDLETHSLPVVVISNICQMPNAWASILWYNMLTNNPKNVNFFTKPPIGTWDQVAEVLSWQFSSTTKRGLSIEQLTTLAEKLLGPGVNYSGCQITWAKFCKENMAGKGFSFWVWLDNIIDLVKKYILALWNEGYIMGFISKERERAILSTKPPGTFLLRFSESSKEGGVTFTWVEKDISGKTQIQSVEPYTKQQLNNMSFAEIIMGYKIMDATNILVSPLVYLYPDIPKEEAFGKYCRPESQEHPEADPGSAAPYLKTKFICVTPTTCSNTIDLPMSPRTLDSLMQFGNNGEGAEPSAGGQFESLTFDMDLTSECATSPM

Changes are numbered by the printed parent chain. No constants are given. Whether binding was seen depends on the method and setting. Binding seen in cells or lysates may run through a third protein. Some entries that bind do so weakly or less than the wild type. For part of these data: Sequences can lack the tags named with a protein.

For experiment [1], the target named is T1, Myc-tagged full-length Pellino1 (human) (UniProt Q96FA3).
T1 sequence: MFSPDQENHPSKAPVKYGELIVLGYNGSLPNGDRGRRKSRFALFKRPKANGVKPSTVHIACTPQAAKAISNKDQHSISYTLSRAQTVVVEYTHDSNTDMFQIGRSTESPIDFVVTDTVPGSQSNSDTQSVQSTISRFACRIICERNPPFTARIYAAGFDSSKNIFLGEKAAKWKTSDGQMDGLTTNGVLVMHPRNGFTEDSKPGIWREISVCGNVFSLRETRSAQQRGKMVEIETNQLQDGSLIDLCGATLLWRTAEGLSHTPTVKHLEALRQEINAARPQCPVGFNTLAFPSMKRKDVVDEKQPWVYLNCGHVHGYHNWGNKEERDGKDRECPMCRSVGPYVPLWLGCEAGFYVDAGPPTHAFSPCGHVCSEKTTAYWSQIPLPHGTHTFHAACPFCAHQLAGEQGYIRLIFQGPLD
In words: co-IP; HEK293T cells transfected with Myc-Pellino1 and Flag-STAT3 (WT or Y705F); IP with anti-Myc antibody overnight at 4 C, blot with anti-Flag; IP lysis buffer 50 mM Tris-HCl pH 7.4, 150 mM NaCl, 1 mM EDTA, 0.25% sodium deoxycholate, 1% NP-40.

For experiment [2], the target named is T2, Pellino1 (endogenous, mouse macrophage cells) (mouse (endogenous in RAW 264.7 and BMDMs)) (UniProt Q8C669).
T2 sequence: T1 sequence with N146S
The experiment can be described thus: co-IP; endogenous proteins; lysates of RAW cells untreated or treated with 100 ng/mL LPS for 6 h; IP with anti-Pellino1 antibody and protein A/G beads overnight at 4 C, blot with anti-STAT3.

Another experiment concerns the target GST-STAT3 (UniProt P40763). In words: pull-down; GST or GST-STAT3 (2 ug) rotated overnight at 4 C with 1000 ug lysate of RAW cells (with or without 100 ng/mL LPS for 6 h) or of BMDMs; lysis buffer 50 mM Tris-HCl pH 7.4, 150 mM NaCl, 1% Tween 20, 0.2% NP-40, 10% glycerol; blot for Pellino1; only the target purified.

On to “Flag-tagged STAT3 (from UniProt P40763 1-770)”, for which the binding result in experiment [1] is given as “binds”.

In the case of “STAT3 (endogenous, RAW cells) (from UniProt P42227 1-770)”, the binding result in experiment [2] is on record as “binds”.

B1: Pellino1 (endogenous, mouse macrophage cells) (protein, UniProt Q8C669 1-418)
chain: T1 sequence with N146S
Consider B1, for which the binding result in the experiment with GST-STAT3 is “binds”.
